Results from PMC4338318.
Results are given in words; binding and its absence hold for the method and conditions named. For some assays here: Binding seen in cells or lysates may run through a third protein. Some results given as binding are weak or reduced against the parent protein; the word gives no strength. Where a sequence is shown, tags or fusion partners need not be part of it.

T1: FLAG-seipin, short translation (398 amino acids) (human), Q96G97
T1 chain: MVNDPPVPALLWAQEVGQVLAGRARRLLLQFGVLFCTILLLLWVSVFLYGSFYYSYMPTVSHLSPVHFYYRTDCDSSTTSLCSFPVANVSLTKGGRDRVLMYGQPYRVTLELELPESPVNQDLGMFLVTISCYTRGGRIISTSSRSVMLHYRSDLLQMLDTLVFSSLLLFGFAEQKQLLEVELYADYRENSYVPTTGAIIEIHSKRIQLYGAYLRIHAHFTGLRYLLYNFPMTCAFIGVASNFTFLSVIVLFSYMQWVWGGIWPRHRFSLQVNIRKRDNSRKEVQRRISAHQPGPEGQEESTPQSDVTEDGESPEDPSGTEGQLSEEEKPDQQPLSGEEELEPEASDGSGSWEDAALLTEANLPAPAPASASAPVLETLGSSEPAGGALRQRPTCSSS


How the values were obtained:
[1] = biological target: T1, FLAG-seipin, short translation (398 …); assay: co-IP; HEK293 cells co-transfected; ODG lysis buffer (50 mM ODG, 50 mM Tris pH 6.8, 150 mM NaCl, 1 mM EDTA); anti-FLAG agarose 2 h at 4 °C; elution with 3xFLAG peptide; immunoblot; details: remark: other sources report otherwise
HA-lipin 1α = HA-lipin 1α (UniProt Q14693); assay: atomic force microscopy (AFM); HA-lipin 1α isolated alone by anti-HA immunoaffinity from tsA 201 cells; tapping mode in air; particle volume against the volume expected from the mass; both purified

Binder	binding [1]	binding (HA-lipin 1α)
AGPAT2-Myc (Myc-tagged human 1-acylglycerol-3-phosphate O-acyltransferase 2), O15120 24-278 (enzyme) AEFYAKVALYCALCFTVSAVASLVCLLRHGGRTVENMSIIGWFVRSFKYFYGLRFEVRDPRRLQEARPCVIVSNHQSILDMMGLMEVLPERCVQIAKRELLFLGPVGLIMYLGGVFFINRQRSSTAMTVMADLGERMVRENLKVWIYPEGTRNDNGDLLPFKKGAFYLAVQAQVPIVPVVYSSFSSFYNTKKKFFTSGTVTVQVLEAIPTSGLTAADVPALVDTCHRAMRTTFLHISKTPQENGATAGSGVQPAQ	binds	
HA-lipin 1α (enzyme, UniProt Q14693 1-890) MNYVGQLAGQVFVTVKELYKGLNPATLSGCIDIIVIRQPNGNLQCSPFHVRFGKMGVLRSREKVVDIEINGESVDLHMKLGDNGEAFFVQETDNDQEVIPMHLATSPILSEGASRMECQLKRGSVDRMRGLDPSTPAQVIAPSETPSSSSVVKKRRKRRRKSQLDSLKRDDNMNTSEDEDMFPIEMSSDEAMELLESSRTLPNDIPPFQDDIPEENLSLAVIYPQSASYPNSDREWSPTPSPSGSRPSTPKSDSELVSKSTERTGQKNPEMLWLWGELPQAAKSSSPHKMKESSPLSSRKICDKSHFQAIHSESSDTFSDQSPTLVGGALLDQNKPQTEMQFVNEEDLETLGAAAPLLPMIEELKPPSASVVQTANKTDSPSRKRDKRSRHLGADGVYLDDLTDMDPEVAALYFPKNGDPSGLAKHASDNGARSANQSPQSVGSSGVDSGVESTSDGLRDLPSIAISLCGGLSDHREITKDAFLEQAVSYQQFVDNPAIIDDPNLVVKIGSKYYNWTTAAPLLLAMQAFQKPLPKATVESIMRDKMPKKGGRWWFSWRGRNTTIKEESKPEQCLAGKAHSTGEQPPQLSLATRVKHESSSSDEERAAAKPSNAGHLPLLPNVSYKKTLRLTSEQLKSLKLKNGPNDVVFSVTTQYQGTCRCEGTIYLWNWDDKVIISDIDGTITRSDTLGHILPTLGKDWTHQGIAKLYHKVSQNGYKFLYCSARAIGMADMTRGYLHWVNERGTVLPQGPLLLSPSSLFSALHREVIEKKPEKFKVQCLTDIKNLFFPNTEPFYAAFGNRPADVYSYKQVGVSLNRIFTVNPKGELVQEHAKTNISSYVRLCEVVDHVFPLLKRSHSSDFPCSDTFSNFTFWREPLPPFENQDIHSASA		no binding
